Experimental data: PMC10477884

Protein sequences, listed by entry. Tags and fused reporters are not part of them.
UniProt P08670: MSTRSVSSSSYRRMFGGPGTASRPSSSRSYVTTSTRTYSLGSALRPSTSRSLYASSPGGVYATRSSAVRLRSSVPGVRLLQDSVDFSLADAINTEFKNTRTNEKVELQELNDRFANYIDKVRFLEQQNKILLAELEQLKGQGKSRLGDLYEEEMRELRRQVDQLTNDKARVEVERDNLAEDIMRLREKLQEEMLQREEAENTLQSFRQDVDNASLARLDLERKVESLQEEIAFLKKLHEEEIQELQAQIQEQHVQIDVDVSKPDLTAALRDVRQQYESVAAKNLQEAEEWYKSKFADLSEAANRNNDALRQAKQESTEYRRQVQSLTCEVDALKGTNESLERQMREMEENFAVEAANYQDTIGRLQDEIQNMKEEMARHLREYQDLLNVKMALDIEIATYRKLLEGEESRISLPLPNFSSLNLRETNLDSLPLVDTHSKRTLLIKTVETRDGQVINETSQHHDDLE
UniProt O95251: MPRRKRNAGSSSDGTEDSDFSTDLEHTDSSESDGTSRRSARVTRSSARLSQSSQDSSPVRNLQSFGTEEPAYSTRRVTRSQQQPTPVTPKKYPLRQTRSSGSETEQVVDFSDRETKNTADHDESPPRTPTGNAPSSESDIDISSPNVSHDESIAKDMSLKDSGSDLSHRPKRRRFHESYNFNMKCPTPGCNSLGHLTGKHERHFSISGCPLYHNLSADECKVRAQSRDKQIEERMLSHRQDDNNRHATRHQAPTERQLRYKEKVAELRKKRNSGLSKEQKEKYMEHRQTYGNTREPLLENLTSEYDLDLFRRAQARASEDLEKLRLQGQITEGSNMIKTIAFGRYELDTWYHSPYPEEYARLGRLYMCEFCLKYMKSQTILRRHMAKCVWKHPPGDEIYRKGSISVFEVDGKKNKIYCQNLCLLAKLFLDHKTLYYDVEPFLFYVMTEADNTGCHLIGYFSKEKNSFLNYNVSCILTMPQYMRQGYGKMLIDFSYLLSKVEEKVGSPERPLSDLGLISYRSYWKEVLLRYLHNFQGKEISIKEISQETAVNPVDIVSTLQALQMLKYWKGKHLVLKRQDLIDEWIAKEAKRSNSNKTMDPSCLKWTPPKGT

Columns and labels:
[1] = molecular target: T1, NACHT, LRR, and PYD domain‐containing protein 11 (NLRP11) (human (endogenous in A549, H1299)) (UniProt P59045); assay: affinity purification with mass spectrometry; co-IP of NLRP11 from H1299 cells, LC-MS/MS of the co-precipitated proteins
T1 sequence: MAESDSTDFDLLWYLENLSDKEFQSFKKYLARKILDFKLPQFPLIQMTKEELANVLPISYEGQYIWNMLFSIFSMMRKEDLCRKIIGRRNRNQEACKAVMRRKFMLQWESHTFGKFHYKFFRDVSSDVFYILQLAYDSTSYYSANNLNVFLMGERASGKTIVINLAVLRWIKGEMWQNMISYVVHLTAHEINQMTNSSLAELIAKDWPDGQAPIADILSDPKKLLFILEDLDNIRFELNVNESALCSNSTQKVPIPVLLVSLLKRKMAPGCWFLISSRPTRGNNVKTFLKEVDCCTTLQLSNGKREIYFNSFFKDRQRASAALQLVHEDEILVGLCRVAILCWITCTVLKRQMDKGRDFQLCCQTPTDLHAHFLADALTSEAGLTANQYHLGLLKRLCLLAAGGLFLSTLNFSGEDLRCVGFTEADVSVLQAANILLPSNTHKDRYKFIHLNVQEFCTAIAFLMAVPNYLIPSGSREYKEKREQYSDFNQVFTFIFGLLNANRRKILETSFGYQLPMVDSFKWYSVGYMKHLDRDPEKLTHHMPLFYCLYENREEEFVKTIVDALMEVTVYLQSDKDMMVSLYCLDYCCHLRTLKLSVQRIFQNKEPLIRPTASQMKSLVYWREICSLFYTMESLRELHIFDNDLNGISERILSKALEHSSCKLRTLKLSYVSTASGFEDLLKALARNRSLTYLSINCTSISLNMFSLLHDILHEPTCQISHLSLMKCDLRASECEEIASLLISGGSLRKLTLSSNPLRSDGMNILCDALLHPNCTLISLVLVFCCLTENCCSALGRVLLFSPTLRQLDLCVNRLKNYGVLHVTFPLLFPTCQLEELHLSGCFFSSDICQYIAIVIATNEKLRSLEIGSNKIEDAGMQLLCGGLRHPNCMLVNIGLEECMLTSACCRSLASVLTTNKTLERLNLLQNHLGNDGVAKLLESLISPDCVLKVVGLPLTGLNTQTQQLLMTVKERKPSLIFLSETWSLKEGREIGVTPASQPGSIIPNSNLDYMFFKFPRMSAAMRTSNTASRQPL

[2] = molecular target: vimentin (human (endogenous in A549, H1299)) (UniProt P08670); assay: affinity purification with mass spectrometry; co-IP of vimentin from H1299 cells, LC-MS/MS of the co-precipitated proteins

Substance	binding [1]	binding [2]
lysine acetyltransferase 7 (KAT7) (from UniProt O95251 1-611) (enzyme)	binds	binds
vimentin (from UniProt P08670 1-466)	binds	
vimentin acetylated at Lys104 (vimentin‐K104Ac) (from UniProt P08670 1-466)	binds	

These are yes or no findings as the source states them, for the method shown. In cells and extracts the contact can be indirect. These calls come from enrichment with a bait or labelling near it, and not all partners need be listed.
